In one test the target is CB2 receptor (hCB2) (Homo sapiens, UniProt P34972). Briefly: cAMP assay (inhibition of FSK stimulated cAMP), CB2. It is filed as cell-based. The note with it: read-out: EC50 (cAMP) CB2 receptor; class symbols. The procedure: FIG. 2A is a graph providing data of the % inhibition of FSK stimulated cAMP for compound 6.1.1 for hCB2.
Further functional characterization of some of the disclosed compounds tested initially for “binding affinity” or for GTPγ-S binding was performed by using the cyclic adenosine monophosphate (cAMP) assay. Key compounds initially characterized functionally using the GTPγ-S assay were also doubly tested using the cAMP assay to unambiguously confirm their functional profiles. The functional potency of the compounds tested using the cyclase assay is also represented by the EC50 (cAMP) value and similarly the lower the EC50 (cAMP) value the higher the potency of the compound for the receptor. A detailed description of the methods used to test compounds using the cAMP assay is given in Yingpeng, et al. J. Med. Chem. (2018) 61, 8639-8657 the content of which is hereby incorporated by reference. The EC50 values (potency of a test compound) of the functional assays may or may not be accompanied by the E(max) value in tables 1-5 (efficacy of the test compound). E(max)/efficacy is the maximum GTP stimulation or cAMP inhibition levels and is presented as the percentage of maximum response evoked by a standard CB1/CB2 full agonist (e.g., CP-55,940) for reference see the paper cited above. […]

Chains of the proteins cited; added tags and fusions are not shown.
UniProt P34972, whole entry: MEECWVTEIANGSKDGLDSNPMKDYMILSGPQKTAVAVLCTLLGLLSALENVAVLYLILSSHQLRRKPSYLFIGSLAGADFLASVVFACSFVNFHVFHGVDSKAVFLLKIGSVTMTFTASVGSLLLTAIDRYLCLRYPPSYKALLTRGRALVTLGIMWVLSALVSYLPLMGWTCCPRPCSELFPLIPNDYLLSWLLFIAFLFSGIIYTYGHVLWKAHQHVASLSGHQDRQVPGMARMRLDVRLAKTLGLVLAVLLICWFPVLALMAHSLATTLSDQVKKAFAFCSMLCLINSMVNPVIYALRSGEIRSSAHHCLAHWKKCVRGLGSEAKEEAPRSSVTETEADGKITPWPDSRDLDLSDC
UniProt P20272, whole entry: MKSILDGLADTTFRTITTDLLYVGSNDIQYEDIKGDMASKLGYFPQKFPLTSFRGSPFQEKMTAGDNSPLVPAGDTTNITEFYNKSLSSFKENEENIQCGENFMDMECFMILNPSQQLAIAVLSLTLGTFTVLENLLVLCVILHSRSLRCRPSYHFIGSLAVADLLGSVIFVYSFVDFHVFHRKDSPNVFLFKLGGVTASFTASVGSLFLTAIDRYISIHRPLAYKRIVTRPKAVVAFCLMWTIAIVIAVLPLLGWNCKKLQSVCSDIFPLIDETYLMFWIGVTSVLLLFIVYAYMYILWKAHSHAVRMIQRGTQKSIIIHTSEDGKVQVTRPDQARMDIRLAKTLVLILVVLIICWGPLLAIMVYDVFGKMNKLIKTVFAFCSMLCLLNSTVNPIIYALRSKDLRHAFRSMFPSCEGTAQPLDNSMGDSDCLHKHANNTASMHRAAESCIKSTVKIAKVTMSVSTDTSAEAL

A further test has as its target CB1 receptor (rCB1) (Rattus norvegicus, UniProt P20272). The test is described as follows: cAMP assay (inhibition of FSK stimulated cAMP), CB1. It is filed as cell-based. The note with it: read-out: EC50 (cAMP) CB1 receptor; class symbols. On the technique in general: Cyclic AMP is a second messenger, typically raised through Gs and lowered through Gi signalling.

From patent publication US20260234099A1, “Endocannabinoid ligands and related analogs” (Northeastern University, priority 2023, published 2026) come the findings set out here.

The structures given here were assigned with low confidence; some may be wrong.

The term EC50 denotes the concentration that produces a half-maximal response.

`C[C@H](/C=C\C/C=C\C/C=C\CCCC(=O)OC(CO)CO)/C=C\CCCCCC#N`: the 50% effective concentration (EC50) on CB2 receptor (hCB2) and at CB1 receptor (rCB1) was 10 to 200 nM each time.
